Values from PubChem BioAssay AID652243 (Drosophila RNAi Screening Center, 2013)
Assay: 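Knock-downs that decrease or increase androgen receptor reporter signal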 (primary screen). System: Drosophila S2R+ cells. Reagents: long dsRNA against Drosophila genes. Duration: 72 h (48 h, then 24 h hormone). Treatment: synthetic androgen R1881 at 10 nM for 24 h. Detection: 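Per-well raw luminescence of the androgen-driven firefly reporter and of the Renilla control, two replicates each, without normalisation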. Scale: firefly reporter light: higher = more light from androgen-responsive reporter; Renilla control light: higher = more constitutive control signal (cell number, transfection). Rule for the call: 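Across duplicate plates, a knock-down whose log firefly/Renilla ratio shifted a set fold down or up from the GFP/LacZ control mean was a hit; the downward cut appears as both 1.5 and 3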. Calls: active = hit: reporter lowered or raised; inactive = no hit.
In all, the deposit lists about 24,000 reagents; below is a random part of those that have a named target and a result. Over the whole deposit, 246 (1%) were called active. 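Plates not normalised; calls are printed but the firefly/Renilla ratio behind them is not deposited; fold cut for lowering reported inconsistently.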 Raw values are not corrected between plates. Not given: the amount of reagent.

CG12715 [DRSC19492] scored firefly reporter light, replicate 1 = 4.26e5; firefly reporter light, replicate 2 = 3.98e5; Renilla control light, replicate 1 = 3.33e6; Renilla control light, replicate 2 = 3.59e6; inactive. After knock-down of Rbpn-5 (Rabaptin-5) [DRSC04440], the record shows firefly reporter light, replicate 1 = 1.07e6; firefly reporter light, replicate 2 = 9.92e5; Renilla control light, replicate 1 = 2.65e6; Renilla control light, replicate 2 = 2.67e6; inactive. After knock-down of Rbpn-5 (Rabaptin-5) [DRSC26142], the screen gave firefly reporter light, replicate 1 = 3.56e5; firefly reporter light, replicate 2 = 2.55e5; Renilla control light, replicate 1 = 6.69e5; Renilla control light, replicate 2 = 7.48e5; inactive. With knock-down of CG33454 [DRSC22914], the screen gave firefly reporter light, replicate 1 = 4.28e5; firefly reporter light, replicate 2 = 7.22e5; Renilla control light, replicate 1 = 9.94e5; Renilla control light, replicate 2 = 1.73e6; inactive. For CG33454 [DRSC26767], the values are firefly reporter light, replicate 1 = 4.22e5; firefly reporter light, replicate 2 = 3.94e5; Renilla control light, replicate 1 = 9.75e5; Renilla control light, replicate 2 = 8.56e5; inactive. Silencing of CG3815 [DRSC18324] resulted in: firefly reporter light, replicate 1 = 96948; firefly reporter light, replicate 2 = 91201; Renilla control light, replicate 1 = 9.18e5; Renilla control light, replicate 2 = 5.35e5; inactive.

Silencing of CG3815 [DRSC25830] resulted in: firefly reporter light, replicate 1 = 3.41e5; firefly reporter light, replicate 2 = 4.66e5; Renilla control light, replicate 1 = 1.08e6; Renilla control light, replicate 2 = 8.71e5; inactive. For CG3815 [DRSC38992] the deposit lists firefly reporter light, replicate 1 = 7.04e5; firefly reporter light, replicate 2 = 5.82e5; Renilla control light, replicate 1 = 1.51e6; Renilla control light, replicate 2 = 1.53e6; inactive. Silencing of CG15414 [DRSC00429] resulted in: firefly reporter light, replicate 1 = 1.16e5; firefly reporter light, replicate 2 = 1.25e5; Renilla control light, replicate 1 = 7.63e5; Renilla control light, replicate 2 = 9.15e5; inactive. With knock-down of CG15414 [DRSC22353], the record shows firefly reporter light, replicate 1 = 6.41e5; firefly reporter light, replicate 2 = 4.94e5; Renilla control light, replicate 1 = 1.85e6; Renilla control light, replicate 2 = 1.87e6; inactive. Depletion of CG15414 [DRSC28498] came out at: firefly reporter light, replicate 1 = 3.27e5; firefly reporter light, replicate 2 = 5.40e5; Renilla control light, replicate 1 = 9.27e5; Renilla control light, replicate 2 = 1.35e6; inactive. Against Pglym78 (Phosphoglyceromutase 78) [DRSC16787], the values are firefly reporter light, replicate 1 = 1.35e5; firefly reporter light, replicate 2 = 81718; Renilla control light, replicate 1 = 7.91e5; Renilla control light, replicate 2 = 4.34e5; inactive.

Against Pglym78 (Phosphoglyceromutase 78) [DRSC24626], the entry reads firefly reporter light, replicate 1 = 3.03e5; firefly reporter light, replicate 2 = 3.25e5; Renilla control light, replicate 1 = 3.60e5; Renilla control light, replicate 2 = 3.87e5; inactive. swm (second mitotic wave missing) [DRSC02012] showed firefly reporter light, replicate 1 = 2.95e5; firefly reporter light, replicate 2 = 3.87e5; Renilla control light, replicate 1 = 3.21e6; Renilla control light, replicate 2 = 3.04e6; inactive. swm (second mitotic wave missing) [DRSC21831] gave firefly reporter light, replicate 1 = 1.16e5; firefly reporter light, replicate 2 = 1.00e5; Renilla control light, replicate 1 = 1.15e6; Renilla control light, replicate 2 = 1.21e6; inactive. Knock-down of Ptp52F (Protein tyrosine phosphatase 52F) [DRSC06717] came out at: firefly reporter light, replicate 1 = 73491; firefly reporter light, replicate 2 = 77521; Renilla control light, replicate 1 = 1.37e6; Renilla control light, replicate 2 = 1.37e6; inactive. Depletion of Ptp52F (Protein tyrosine phosphatase 52F) [DRSC36866] came out at: inactive. Against Ptp52F (Protein tyrosine phosphatase 52F) [DRSC36867], the entry reads inactive.

Silencing of tex [DRSC16517] resulted in: firefly reporter light, replicate 1 = 75747; firefly reporter light, replicate 2 = 1.35e5; Renilla control light, replicate 1 = 1.46e6; Renilla control light, replicate 2 = 1.18e6; inactive. For Sec63 (Secretory 63) [DRSC11002], the values are firefly reporter light, replicate 1 = 2.23e5; firefly reporter light, replicate 2 = 2.74e5; Renilla control light, replicate 1 = 2.18e6; Renilla control light, replicate 2 = 1.88e6; inactive. NimC3 (Nimrod C3) [DRSC03556] gave firefly reporter light, replicate 1 = 2.05e5; firefly reporter light, replicate 2 = 2.45e5; Renilla control light, replicate 1 = 2.20e6; Renilla control light, replicate 2 = 2.80e6; inactive. With knock-down of NimC3 (Nimrod C3) [DRSC22528], the screen gave firefly reporter light, replicate 1 = 7.45e5; firefly reporter light, replicate 2 = 8.54e5; Renilla control light, replicate 1 = 1.48e6; Renilla control light, replicate 2 = 1.17e6; inactive. Against NimC3 (Nimrod C3) [DRSC28582], the entry reads firefly reporter light, replicate 1 = 7.41e5; firefly reporter light, replicate 2 = 5.95e5; Renilla control light, replicate 1 = 1.49e6; Renilla control light, replicate 2 = 1.12e6; inactive.

A run of entries from the list above:
CG15414 [DRSC00429]: firefly reporter light, replicate 1 = 1.16e5; firefly reporter light, replicate 2 = 1.25e5; Renilla control light, replicate 1 = 7.63e5; Renilla control light, replicate 2 = 9.15e5; call = inactive
CG15414 [DRSC22353]: firefly reporter light, replicate 1 = 6.41e5; firefly reporter light, replicate 2 = 4.94e5; Renilla control light, replicate 1 = 1.85e6; Renilla control light, replicate 2 = 1.87e6; call = inactive
